One substance from publication PMC6136374 can be followed below.

These are yes or no findings as the source states them, for the method shown. Binding seen in cells or lysates may run through a third protein. Where a sequence is shown, tags or fusion partners need not be part of it.

This assay has as its target T1, nYFP-ABF3 (Arabidopsis thaliana) (UniProt Q9M7Q3).
T1 sequence: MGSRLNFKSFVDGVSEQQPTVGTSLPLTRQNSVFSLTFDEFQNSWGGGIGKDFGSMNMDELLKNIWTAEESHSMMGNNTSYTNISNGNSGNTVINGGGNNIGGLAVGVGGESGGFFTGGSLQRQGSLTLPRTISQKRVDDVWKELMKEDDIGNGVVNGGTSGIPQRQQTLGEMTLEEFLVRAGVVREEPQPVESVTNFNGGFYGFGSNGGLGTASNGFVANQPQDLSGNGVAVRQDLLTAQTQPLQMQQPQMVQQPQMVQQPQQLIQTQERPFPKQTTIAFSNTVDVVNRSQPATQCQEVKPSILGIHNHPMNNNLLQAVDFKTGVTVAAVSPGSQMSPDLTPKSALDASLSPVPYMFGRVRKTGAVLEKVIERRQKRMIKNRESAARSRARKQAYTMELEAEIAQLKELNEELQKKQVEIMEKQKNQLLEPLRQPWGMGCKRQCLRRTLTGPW
The assay can be described thus: split reporter; BiFC with nYFP (pXY106) and cYFP (pXY104) fusions co-transformed into Nicotiana benthamiana leaf epidermal cells; confocal microscopy after 48 hours.

Consider “cYFP only (YFP C-terminal fragment) (domain or fragment)”, for which the binding result is on record as “no binding”.
